Patent publication US8461328B2, “Tricyclic heterocyclic compounds, compositions and methods of use thereof” (Genentech, Inc., priority 2010, dated 2013)
pKi: −log10 of the molar value. Counter-ions that a name gives are not always drawn. Like-named read-outs stand apart in the source and are kept apart here. Some of these results come from one statement about several compounds together. One block for each compound: values may come before it.

By UniProt entry, the sequences of proteins in these tests, tags left out. Residues count along the entry.
UniProt P23458, 852-1154: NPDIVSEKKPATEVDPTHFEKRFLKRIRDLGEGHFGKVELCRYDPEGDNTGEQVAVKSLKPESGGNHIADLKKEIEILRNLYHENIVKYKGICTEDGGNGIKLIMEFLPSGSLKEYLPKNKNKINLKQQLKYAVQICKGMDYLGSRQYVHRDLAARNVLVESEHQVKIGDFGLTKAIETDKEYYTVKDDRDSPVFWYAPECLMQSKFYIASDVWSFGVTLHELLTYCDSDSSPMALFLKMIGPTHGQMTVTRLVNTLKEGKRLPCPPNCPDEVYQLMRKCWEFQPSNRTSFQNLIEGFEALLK

Molecular target: T1, human JAK1 kinase domain (Homo sapiens, UniProt P23458)
T1 construct: made in house; host or cells: SF9 insect cells (baculovirus)
Test: JAK1 inhibition assay (Example B), Caliper LabChip peptide phosphorylation
Type: biochemical

[1] = 1.5 nM JAK1, 25 μM ATP, Morrison tight binding model; read-out: Ki in a JAK1 kinase activity assay (Example B)

Structure (SMILES): N#CCC1CCC(n2c(CO)nc3cnc4[nH]ccc4c32)CC1 (mixture of isomers) [Example 643, [4-(2-Hydroxymethyl-6H-1,2,3,5,6-tetraaza-as-indacen-1-yl)-cyclohexyl]-acetonitrile]
- pKi (read-out: Ki in a JAK1 kinase activity assay (Example B); 1.5 nM JAK1, 25 μM ATP, Morrison tight binding model): > 6.30

Structure (SMILES): CC1(C(=O)N2CCC(n3cnc4cnc5[nH]ccc5c43)CC2)CCCN1 (racemic) [Example 251]
- pKi [1]: > 6.30

Structure (SMILES): CC(O)c1nc2cnc3[nH]ccc3c2n1C1CCNCC1 (racemic) [Example 291]
- pKi [1]: > 6.30

Structure (SMILES): CC(O)c1nc2cnc3[nH]ccc3c2n1C1CCN(Cc2cccnc2)CC1 (racemic) [Example 292, 1-[1-(1-Pyridin-3-ylmethyl-piperidin-4-yl)-1,6-dihydro-1,3,5,6-tetraaza-as-indacen-2-yl]-ethanol]
- pKi [1]: > 6.30

Structure (SMILES): NC1CCC(n2cnc3cnc4[nH]ccc4c32)C1 (racemic) [Example 294, 3-(6H-1,3,5,6-Tetraaza-as-indacen-1-yl)-cyclopentylamine]
- pKi [1]: > 6.30

Structure (SMILES): N#CCCNC1CCC(n2cnc3cnc4[nH]ccc4c32)C1 (racemic) [Example 300, 3-[3-(6H-1,3,5,6-Tetraaza-as-indacen-1-yl)-cyclopentylamino]-propionitrile]
- pKi [1]: > 6.30

Structure (SMILES): CC(CC#N)N1CCC(n2cnc3cnc4[nH]ccc4c32)CC1 (racemic) [Example 305, 3-[4-(6H-1,3,5,6-Tetraaza-as-indacen-1-yl)-piperidin-1-yl]-butyronitrile]
- pKi [1]: > 6.30

Structure (SMILES): CC1CNCCC1n1cnc2cnc3[nH]ccc3c21 (racemic) [Example 306, 1-(3-Methyl-piperidin-4-yl)-1,6-dihydro-1,3,5,6-tetraaza-as-indacene]
- pKi [1]: > 6.30

Structure (SMILES): CC1CNCCC1n1cnc2cnc3[nH]ccc3c21 (racemic) [Example 312, 1-(3-Methyl-piperidin-4-yl)-1,6-dihydro-1,3,5,6-tetraaza-as-indacene]
- pKi [1]: > 6.30

Structure (SMILES): CC1CN(CCC#N)CCC1n1cnc2cnc3[nH]ccc3c21 (racemic) [Example 323, 3-[3-Methyl-4-(6H-1,3,5,6-tetraaza-as-indacen-1-yl)-piperidin-1-yl]-propionitrile]
- pKi [1]: > 6.30

Structure (SMILES): CC1CN(CCC#N)CCC1n1cnc2cnc3[nH]ccc3c21 (racemic) [Example 324, 3-[3-Methyl-4-(6H-1,3,5,6-tetraaza-as-indacen-1-yl)-piperidin-1-yl]-propionitrile]
- pKi [1]: > 6.30

Structure (SMILES): CC1CN(Cc2cncnc2)CCC1n1cnc2cnc3[nH]ccc3c21 (racemic) [Example 342, 1-(3-Methyl-1-pyrimidin-5-ylmethyl-piperidin-4-yl)-1,6-dihydro-1,3,5,6-tetraaza-as-indacene]
- pKi [1]: > 6.30

Structure (SMILES): CC1CN(Cc2cncnc2)CCC1n1cnc2cnc3[nH]ccc3c21 (racemic) [Example 343, 1-(3-Methyl-1-pyrimidin-5-ylmethyl-piperidin-4-yl)-1,6-dihydro-1,3,5,6-tetraaza-as-indacene]
- pKi [1]: > 6.30

Structure (SMILES): CC1CN(S(C)(=O)=O)CCC1n1cnc2cnc3[nH]ccc3c21 (racemic) [Example 344, 1-(1-Methanesulfonyl-3-methyl-piperidin-4-yl)-1,6-dihydro-1,3,5,6-tetraaza-as-indacene]
- pKi [1]: > 6.30

Structure (SMILES): CC1CN(S(C)(=O)=O)CCC1n1cnc2cnc3[nH]ccc3c21 (racemic) [Example 345, 1-(1-Methanesulfonyl-3-methyl-piperidin-4-yl)-1,6-dihydro-1,3,5,6-tetraaza-as-indacene]
- pKi [1]: > 6.30

Structure (SMILES): CC(O)c1nc2cnc3[nH]ccc3c2n1C1CCN(Cc2ccnc(C#N)c2)CC1 (racemic) [Example 350, 4-{4-[2-(1-Hydroxy-ethyl)-6H-1,3,5,6-tetraaza-as-indacen-1-yl]-piperidin-1-ylmethyl}-pyridine-2-carbonitrile]
- pKi [1]: > 6.30

Structure (SMILES): CC(O)c1nc2cnc3[nH]ccc3c2n1C1CCN(Cc2csc(C(F)(F)F)n2)CC1 (racemic) [Example 351, 1-{1-[1-(2-Trifluoromethyl-thiazol-4-ylmethyl)-piperidin-4-yl]-1,6-dihydro-1,3,5,6-tetraaza-as-indacen-2-yl}-ethanol]
- pKi [1]: > 6.30

Structure (SMILES): Cc1nc2cnc3[nH]ccc3c2n1C1CCC(NC(=O)OC(C)(C)C)C1 (racemic) [Example 352, [(1S,3S)-3-(2-Methyl-6H-1,3,5,6-tetraaza-as-indacen-1-yl]-cyclopentyl]-carbamic acid tert-butyl ester]
- pKi [1]: > 6.30

Structure (SMILES): CCC(C)S(=O)(=O)NCCc1nc2cnc3[nH]ccc3c2n1C1CCN(CCC#N)CC1 (racemic) [Example 369, Butane-2-sulfonic acid (2-{1-[1-(2-cyano-ethyl)-piperidin-4-yl]-1,6-dihydro-1,3,5,6-tetraaza-as-indacen-2-yl}-ethyl)-amide]
- pKi [1]: > 6.30

Structure (SMILES): CN1CC(c2nc3cnc4[nH]ccc4c3n2C2CCN(CCC#N)CC2)CC1=O (racemic) [Example 384, 3-{4-[2-(1-Methyl-5-oxo-pyrrolidin-3-yl)-6H-1,3,5,6-tetraaza-as-indacen-1-yl]-piperidin-1-yl}-propionitrile]
- pKi [1]: > 6.30

Now from value to compound:

- pKi [1]: > 6.30
Structure (SMILES): Cc1nc2cnc3[nH]ccc3c2n1C1CCCCC1C (mixture of isomers) [Example 516, 2-Methyl-1-(2-methyl-cyclohexyl)-1,6-dihydro-1,3,5,6-tetraaza-as-indacene]

- pKi [1]: > 6.30
Structure (SMILES): C[C@@H](O)c1nc2cnc3[nH]ccc3c2n1C1CCC(CS(C)(=O)=O)CC1 (mixture of isomers) [Example 649, (R)-1-[1-(4-Methanesulfonylmethyl-cyclohexyl)-1,6-dihydro-1,2,3,5,6-tetraaza-as-indacen-2-yl]-ethanol]

- pKi [1]: > 6.30
Structure (SMILES): O=C1CC2CCC(n3cnc4cnc5[nH]ccc5c43)CC2N1 (racemic) [Example 111, 6-(6H-1,2,3,5,6-Tetraaza-as-indacen-1-yl)-octahydro-indol-2-one]

- pKi [1]: > 6.30
Structure (SMILES): CCC(C)Cc1nc2cnc3[nH]ccc3c2n1C1CCN(CCC#N)CC1 (racemic) [Example 122, 3-{4-[2-(2-Methyl-butyl)-6H-1,2,3,5,6-tetraaza-as-indacen-1-yl]-piperidin-1-yl}-propionitrile]

- pKi [1]: > 6.30
Structure (SMILES): COC(=O)CC(c1cccnc1)N1CCC(n2cnc3cnc4[nH]ccc4c32)CC1 (racemic) [Example 126, 3-pyridin-3-yl-3-[4-(6H-1,2,3,5,6-tetraaza-as-indacen-1-yl)-piperidin-1-yl]-propionic acid methyl ester]

- pKi [1]: > 6.30
Structure (SMILES): CC1CC(n2cnc3cnc4[nH]ccc4c32)CCN1Cc1ccccc1 (racemic) [Example 127, 1-(1-Benzyl-2-methyl-piperidin-4-yl)-1,6-dihydro-1,2,3,5,6-tetraaza-as-indacene]

- pKi [1]: > 6.30
Structure (SMILES): CC1CC(n2cnc3cnc4[nH]ccc4c32)CCN1Cc1ccccc1 (racemic) [Example 128, 1-(1-Benzyl-2-methyl-piperidin-4-yl)-1,6-dihydro-1,2,3,5,6-tetraaza-as-indacene]

- pKi [1]: > 6.30
Structure (SMILES): O=C1CC(n2cnc3cnc4[nH]ccc4c32)CCN1Cc1ccccc1 (racemic) [Example 129, 1-Benzyl-4-(6H-1,2,3,5,6-tetraaza-as-indacen-1-yl)-piperidin-2-one]

- pKi [1]: > 6.30
Structure (SMILES): O=C1CCC(n2cnc3cnc4[nH]ccc4c32)CN1 (racemic) [Example 130, 5-(6H-1,2,3,5,6-Tetraaza-as-indacen-1-yl)-piperidin-2-one]

- pKi [1]: > 6.30
Structure (SMILES): O=C1CC(n2cnc3cnc4[nH]ccc4c32)CCN1 (racemic) [Example 133, 4-(6H-1,2,3,5,6-Tetraaza-as-indacen-1-yl)-piperidin-2-one]

- pKi [1]: > 6.30
Structure (SMILES): CC1CN(Cc2ccccc2)CCC1n1cnc2cnc3[nH]ccc3c21 (racemic) [Example 149, Racemic cis 1-(1-Benzyl-3-methyl-piperidin-4-yl)-1,6-dihydro-1,2,3,5,6-tetraaza-as-indacene]

- pKi [1]: > 6.30
Structure (SMILES): Cc1nc2cnc3[nH]ccc3c2n1C1CCN(Cc2ccccc2)CC1C (racemic) [Example 151, Racemic 1-(1-benzyl-3-methyl-piperidin-4-yl)-2-methyl-1,6-dihydro-1,2,3,5,6-tetraaza-as-indacene dihydrochloride salt]

- pKi [1]: > 6.30
Structure (SMILES): CC(O)c1nc2cnc3[nH]ccc3c2n1C1CCN(Cc2cccc(C#N)c2)CC1 (racemic) [Example 156, Racemic 3-{4-[2-(1-Hydroxy-ethyl)-6H-1,2,3,5,6-tetraaza-as-indacen-1-yl]-piperidin-1-ylmethyl}-benzonitrile]

- pKi [1]: > 6.30
Structure (SMILES): CC(O)c1nc2cnc3[nH]ccc3c2n1C1CCN(Cc2ccccc2)CC1 (racemic) [Example 157, Racemic 1-[1-(1-Benzyl-piperidin-4-yl)-1,6-dihydro-1,2,3,5,6-tetraaza-as-indacen-2-yl]-ethanol]

- pKi [1]: > 6.30
Structure (SMILES): CC(O)c1nc2cnc3[nH]ccc3c2n1C1CCN(CCC#N)CC1 (racemic) [Example 158, Racemic 3-{4-[2-(1-Hydroxy-ethyl)-6H-1,2,3,5,6-tetraaza-as-indacen-1-yl]-piperidin-1-yl}-propionitrile]

- pKi [1]: > 6.30
Structure (SMILES): CC(C)NC(=O)C(C)c1nc2cnc3[nH]ccc3c2n1C1CCN(CCC#N)CC1 (racemic) [Example 172, Racemic 2-{1-[1-(2-Cyano-ethyl)-piperidin-4-yl]-1,6-dihydro-1,2,3,5,6-tetraaza-as-indacene-2-yl}-N-isopropyl-propionamide]

- pKi [1]: > 6.30
Structure (SMILES): CC1CC(n2cnc3cnc4[nH]ccc4c32)CCN1 (racemic) [Example 229, 1-(2-Methyl-piperidin-4-yl)-1,6-dihydro-1,3,5,6-tetraaza-as-indacene]

- pKi [1]: > 6.30
Structure (SMILES): CC1CC(n2cnc3cnc4[nH]ccc4c32)CCN1 (racemic) [Example 230, 1-(2-Methyl-piperidin-4-yl)-1,6-dihydro-1,3,5,6-tetraaza-as-indacene]

- pKi [1]: > 6.30
Structure (SMILES): O=C(C1CC1F)N1CCC[C@@H](n2cnc3cnc4[nH]ccc4c32)C1 (mixture of isomers) [Example 235, (2-Fluoro-cyclopropyl)-[(R)-3-(6H-1,3,5,6-tetraaza-as-indacen-1-yl)-piperidin-1-yl]-methanone]

- pKi [1]: > 6.30
Structure (SMILES): CC(C)(C)OC(=O)N1CCCC1(C)C(=O)N1CCC(n2cnc3cnc4[nH]ccc4c32)CC1 (racemic) [Example 244, 2-Methyl-2-[4-(6H-1,3,5,6-tetraaza-as-indacen-1-yl)-piperidine-1-carbonyl]-pyrrolidine-1 carboxylic acid tert-butyl ester]
